Laboratory results from article PMC2908683.

Chains of the proteins cited; added tags and fusions are not shown. Lines headed by an entry give the natural chain unless they say otherwise; changes in a name come on top.
UniProt P50552: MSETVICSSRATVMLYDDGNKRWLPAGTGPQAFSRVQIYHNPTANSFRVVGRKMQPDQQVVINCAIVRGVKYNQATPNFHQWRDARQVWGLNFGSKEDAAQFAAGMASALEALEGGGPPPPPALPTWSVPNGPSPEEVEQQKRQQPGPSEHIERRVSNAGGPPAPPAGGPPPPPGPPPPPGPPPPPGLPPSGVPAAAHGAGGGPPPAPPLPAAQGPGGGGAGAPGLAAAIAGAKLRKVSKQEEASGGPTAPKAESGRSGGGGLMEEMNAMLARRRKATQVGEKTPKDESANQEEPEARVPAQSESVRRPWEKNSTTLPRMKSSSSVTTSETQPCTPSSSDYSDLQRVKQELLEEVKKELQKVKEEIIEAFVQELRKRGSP

Molecular target: T1, LexA-ADAP-C (aa 486-783), two-hybrid bait without active Fyn kinase (human) (UniProt O15117)
T1 sequence: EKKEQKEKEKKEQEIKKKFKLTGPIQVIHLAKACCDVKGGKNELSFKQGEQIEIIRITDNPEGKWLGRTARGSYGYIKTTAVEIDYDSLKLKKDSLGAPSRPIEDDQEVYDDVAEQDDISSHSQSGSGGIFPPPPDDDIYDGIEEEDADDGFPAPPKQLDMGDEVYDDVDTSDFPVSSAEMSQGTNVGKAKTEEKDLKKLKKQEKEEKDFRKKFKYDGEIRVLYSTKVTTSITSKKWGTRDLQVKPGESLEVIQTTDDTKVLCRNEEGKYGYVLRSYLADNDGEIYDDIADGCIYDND
Assay: two-hybrid; LexA-ADAP-C bait without active Fyn kinase; Gal4-AD preys; growth on SD4

With “EVH1 domain of VASP, two-hybrid prey (from UniProt P50552) (domain or fragment)” the binding was “binds”.

Results are given in words; binding and its absence hold for the method and conditions named. A result given as binding can be weak or reduced; the word gives no strength.
